# Measurements reported in patent US20120041305A1, “LIGHT-EMITTING DYE FOR INTRAOPERATIVE IMAGING OR SENTINEL LYMPH NODE BIOPSY” (THE UNIVERSITY OF UTAH RESEARCH FOUNDATION, priority 2009, published 2012).
# Assay: Porcine model of lymphatic mapping (intradermal limb injection)
# Type: in vivo
# Settings: swine, injected in the same location
smiles,measurement,setting,value
"CCN(CC)c1ccc(C(=C2C=CC(=[N+](CC)CC)C=C2)c2cc(S(=O)(=O)[O-])ccc2S(=O)(=O)[O-])cc1.[Na+] [Lymphazurin, isosulfan blue]",co-localization of fluorescein and blue dye in lymphatics and SLN,listed as Lymphazurin™,co-localized in the same lymphatic trunks and drained to the same SLN
same,co-localization of fluorescein and blue dye in lymphatics and SLN,listed as isosulfan blue,co-localizes in the afferent lymphatics and the sentinel lymph node
